Results taken from patent US6566088B1, “Prolyl-4-hydroxylases” (Board of Regents, The University of Texas System, priority 2001, dated 2003).
At least one compound was matched to its structure with a doubt left.

The chains behind the UniProt entries cited, without tags or fusion partners. A line that says so, or that is headed by a name, gives the form on record, which may keep a tag or linker.
UniProt Q9GZT9, with tags, fused parts or gaps DEL76-177: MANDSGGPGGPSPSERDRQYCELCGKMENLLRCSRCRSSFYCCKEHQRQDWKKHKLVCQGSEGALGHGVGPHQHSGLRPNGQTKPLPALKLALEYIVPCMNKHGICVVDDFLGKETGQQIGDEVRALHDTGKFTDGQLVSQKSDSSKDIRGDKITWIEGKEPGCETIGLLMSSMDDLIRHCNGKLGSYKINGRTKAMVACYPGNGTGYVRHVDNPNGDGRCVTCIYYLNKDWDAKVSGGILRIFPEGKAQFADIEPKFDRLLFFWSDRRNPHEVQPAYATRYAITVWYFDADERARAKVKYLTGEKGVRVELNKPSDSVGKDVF

Target: T1, HPH 2 (Homo sapiens, UniProt Q9GZT9, DEL76-177)
T1 construct: MBP (N); made in house; host or cells: E. coli BL21-CodonPlus-RIL
Test: Activity of purified recombinant HPH 2 on HIF-1a peptide substrate
Assay type: biochemical
Settings: additive added (CoCl2 in excess)

## O=C1O[C@H]([C@@H](O)CO)C(O)=C1O [ascorbate]
  effect on activity of the HPH 2 enzyme: greatly stimulated
